Assay results published in the supplement of paper PMC7661543.
± gives the standard deviation of the averaged measurements. Differences between knockout arms are mostly noise.

Test system: ZR-75-1
Assay: relative cell number vs DMSO control (72 h) (% of DMSO); higher = less growth inhibition (more cells)
Protocol: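 QMAP-Seq: a pool of 5 breast cancer cell lines (ZR-75-1, SKBR3, HCC-38, MDA-MB-231, BT-20), each carrying 12 doxycycline-inducible Cas9 sgRNA perturbations (11 knockouts plus non-targeting sgNT), was treated with compounds for 72 h at four 10-fold doses (10 nM-10 uM or 1 nM-1 uM range). Barcodes were amplified and sequenced, and cell number was interpolated from 293T spike-in standard curves. The result is expressed as % of the median of DMSO wells. Two biological replicates.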

[1] = sgRNA knockout: sgATF3, 1000 nM
[2] = sgRNA knockout: sgATF3, 10000 nM
[3] = sgRNA knockout: sgATF4, 1000 nM
[4] = sgRNA knockout: sgATF4, 10000 nM
[5] = sgRNA knockout: sgATF6, 1000 nM
[6] = sgRNA knockout: sgATF6, 10000 nM
[7] = sgRNA knockout: sgATG7, 1000 nM
[8] = sgRNA knockout: sgATG7, 10000 nM
[9] = sgRNA knockout: sgERN1, 1000 nM
[10] = sgRNA knockout: sgERN1, 10000 nM
[11] = sgRNA knockout: sgHSF2, 1000 nM
[12] = sgRNA knockout: sgHSF2, 10000 nM
[13] = sgRNA knockout: sgNFE2L2, 10 nM
[14] = sgRNA knockout: sgNFE2L2, 100 nM
[15] = sgRNA knockout: sgNFE2L2, 1000 nM
[16] = sgRNA knockout: sgNFE2L2, 10000 nM
[17] = sgRNA knockout: sgSLC35F2, 10 nM
[18] = sgRNA knockout: sgSLC35F2, 100 nM
[19] = sgRNA knockout: sgSLC35F2, 1000 nM
[20] = sgRNA knockout: sgSLC35F2, 10000 nM
[21] = sgRNA knockout: sgXBP1, 1000 nM
[22] = sgRNA knockout: sgXBP1, 10000 nM

Row | Structure (SMILES) | relative cell number (sgRNA knockout: sgATF3, 10 nM) | relative cell number (sgRNA knockout: sgATF3, 100 nM) | relative cell number [1] | relative cell number [2] | relative cell number (sgRNA knockout: sgATF4, 10 nM) | relative cell number (sgRNA knockout: sgATF4, 100 nM) | relative cell number [3] | relative cell number [4] | relative cell number (sgRNA knockout: sgATF6, 10 nM) | relative cell number (sgRNA knockout: sgATF6, 100 nM) | relative cell number [5] | relative cell number [6] | relative cell number (sgRNA knockout: sgATG7, 10 nM) | relative cell number (sgRNA knockout: sgATG7, 100 nM) | relative cell number [7] | relative cell number [8] | relative cell number (sgRNA knockout: sgERN1, 10 nM) | relative cell number (sgRNA knockout: sgERN1, 100 nM) | relative cell number [9] | relative cell number [10] | relative cell number (sgRNA knockout: sgHSF2, 10 nM) | relative cell number (sgRNA knockout: sgHSF2, 100 nM) | relative cell number [11] | relative cell number [12] | relative cell number [13] | relative cell number [14] | relative cell number [15] | relative cell number [16] | relative cell number [17] | relative cell number [18] | relative cell number [19] | relative cell number [20] | relative cell number (sgRNA knockout: sgXBP1, 10 nM) | relative cell number (sgRNA knockout: sgXBP1, 100 nM) | relative cell number [21] | relative cell number [22]
1 | CC(C)CC(=O)Nc1n[nH]c2c1CN(C(=O)C1CCN(C)CC1)C2(C)C | 102 ± 46 | 41.1 ± 6.3 | 47.5 ± 36 | 22.1 ± 3.1 | 134 ± 20 | 54.1 ± 4 | 37.1 ± 14 | 12.7 ± 6.7 | 71.8 ± 28 | 62.6 ± 15 | 23.6 ± 3.9 | 15.2 ± 2.9 | 91.1 ± 45 | 44.5 ± 2.5 | 45.5 ± 5.2 | 17.2 ± 3.2 | 98 ± 10 | 54.9 ± 5.6 | 32.8 ± 22 | 22.9 ± 4.1 | 90.33 ± 0.71 | 48.8 ± 10 | 36.5 ± 11 | 20.7 ± 4 | 98.6 ± 13 | 64.5 ± 6.4 | 42.8 ± 22 | 16.3 ± 8.5 | 102 ± 44 | 76.1 ± 1.9 | 34.7 ± 4.6 | 15 ± 10 | 88.3 ± 14 | 59.7 ± 5.2 | 38.9 ± 14 | 15.1 ± 1.2
2 | Cc1c(Cn2c(C)nc3c(C(=O)O)cc(N4CCOCC4)cc32)cccc1C(F)(F)F | 140 ± 23 | 99.2 ± 16 | 82.6 ± 6.7 | 92.2 ± 24 | 111 ± 37 | 137 ± 40 | 88.3 ± 22 | 102 ± 37 | 82.4 ± 10 | 87.3 ± 14 | 98.1 ± 4 | 105 ± 37 | 104 ± 3.8 | 114 ± 45 | 101 ± 25 | 73.5 ± 5.1 | 116 ± 18 | 101 ± 8.4 | 88.5 ± 2.2 | 89.91 ± 0.42 | 120 ± 36 | 90.8 ± 27 | 90.52 ± 0.49 | 81.2 ± 11 | 127 ± 30 | 95.6 ± 9.8 | 83.8 ± 4.9 | 116 ± 33 | 76.8 ± 34 | 156 ± 43 | 85.4 ± 41 | 99.8 ± 16 | 138 ± 1.7 | 98.6 ± 12 | 84.8 ± 8.3 | 99.7 ± 22
3 | Cc1cc(N2CCOCC2)cc2[nH]c(-c3c(NC[C@@H](O)c4cccc(Cl)c4)cc[nH]c3=O)nc12 | 115 ± 9.4 | 68.8 ± 15 | 60.8 ± 14 | 31.5 ± 0.56 | 65 ± 17 | 102 ± 54 | 118 ± 19 | 27.9 ± 11 | 64.6 ± 9.6 | 87.4 ± 22 | 74.9 ± 32 | 33.3 ± 17 | 82.5 ± 25 | 72.8 ± 1.8 | 64.4 ± 17 | 31.1 ± 4.1 | 80.2 ± 8 | 72.7 ± 1.8 | 84.3 ± 17 | 36.5 ± 4.9 | 107 ± 23 | 68.6 ± 9.3 | 76.4 ± 3.8 | 32.5 ± 2.4 | 75.8 ± 8.3 | 104 ± 3.7 | 74.88 ± 0.27 | 24.4 ± 0.69 | 57.3 ± 19 | 90.1 ± 98 | 43.8 ± 24 | 41.7 ± 35 | 82.4 ± 12 | 88 ± 9.3 | 84.1 ± 5.2 | 31 ± 3.1
